The values below come from PubChem BioAssay AID256 (DTP/NCI, 2004).

The structures appear in SMILES notation. The list is a part of this screen's results and no random one: it gathers tests that were run many times, whatever their T/C, doses with no T/C, and many T/C values between a quarter and a half above the control. Other doses and runs of a compound stand elsewhere. T/C gives the treated animals as a percentage of the vehicle group. Some doses have a count of surviving animals in place of a T/C: the source holds a T/C of zero for them, seemingly a mark for toxic or unscored doses. Some survivor counts are full or nearly so, which does not show that the dose was tolerated: the source hardly ever lists a survival T/C far under the control, and the zero likely stands for such cases as well. Counts of survivors are from the toxicity check (mostly the fifth day) where no day follows; animals may have died later. Schedules are NCI's codes, read here as Q, the interval in days (D) or hours (H), X, the number of doses. Some entries were tested several times; the values are given in rising order. Where survival is the endpoint, the PubChem record calls one and a half times the control and up active, and a quarter to a half above the control has no call in these data; cut-offs in other NCI protocols can differ. Some T/C values carry the count of animals alive at the toxicity check (mostly the fifth day); where none is given, no animal had died by that day.

The subject of this assay is CD2F1 mice, L1210 leukemia ip, survival T/C. Kind of assay: NCI In Vivo Anticancer Drug Screen. Data for tumor model L1210 Leukemia (intraperitoneal) in CD2F1 (CDF1) mice. The note with it: higher T/C = longer survival. The procedure, abridged: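 Activity against a transplanted murine tumor was judged by comparing the compound group with a vehicle group. The outcome in the treated animals was divided by that in the controls.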

Setting [1] is: T/C endpoint: mean survival time, dose: 12.5 mg/kg/injection, schedule: Q01DX009 (ip), vehicle: saline.
The mark [2] stands for this setting: T/C endpoint: mean survival time, dose: 25.0 mg/kg/injection, schedule: Q01DX009 (ip), vehicle: saline.
Where [3] appears, read: T/C endpoint: mean survival time, dose: 50.0 mg/kg/injection, schedule: Q01DX009 (ip), vehicle: saline.
[4] abbreviates: T/C endpoint: mean survival time, dose: 400.0 mg/kg/injection, schedule: Q04DX003 (ip), vehicle: saline with Tween-80.
Setting [5] is: T/C endpoint: mean survival time, dose: 200.0 mg/kg/injection, schedule: Q01DX009 (ip), vehicle: saline.
Where [6] appears, read: T/C endpoint: mean survival time, dose: 400.0 mg/kg/injection, schedule: Q01DX009 (ip), vehicle: saline with Tween-80.
[7] abbreviates: T/C endpoint: mean survival time, dose: 200.0 mg/kg/injection, schedule: Q04DX003 (ip), vehicle: saline.
[8] abbreviates: T/C endpoint: mean survival time, dose: 400.0 mg/kg/injection, schedule: Q04DX003 (ip), vehicle: saline.

`CCOc1c[n+](C)c(C)s1`: under “T/C endpoint: mean survival time, dose: 400.0 mg/kg/injection, schedule: Q01DX001 (ip), vehicle: carboxymethylcellulose (CMC)”, the survivor count is 0 of 4.
Consider `CCC(C)(C[NH-])C[NH-].[Cl][Pt+2][Cl]`, for which, where the note is “T/C endpoint: mean survival time, dose: 12.5 mg/kg/injection, schedule: Q04DX003 (ip), vehicle: saline”, the T/C was 147 % of control. The survivor count by setting is: (T/C endpoint: mean survival time, dose: 25.0 mg/kg/injection, schedule: Q04DX003 (ip), vehicle: saline with Tween-80) 6 of 6; (T/C endpoint: mean survival time, dose: 50.0 mg/kg/injection, schedule: Q04DX003 (ip), vehicle: saline with Tween-80) 0 of 6; (T/C endpoint: mean survival time, dose: 100.0 mg/kg/injection, schedule: Q04DX003 (ip), vehicle: saline with Tween-80) 0 of 6; (T/C endpoint: mean survival time, dose: 200.0 mg/kg/injection, schedule: Q04DX003 (ip), vehicle: saline with Tween-80) 0 of 6.
On to `CNC(=O)c1ccccc1N=NN(C)C`, for which, for the setting “T/C endpoint: mean survival time, dose: 75.0 mg/kg/injection, schedule: Q01DX009 (ip), vehicle: Klucel (hydroxypropylcellulose) (HPC)”, the T/C was 130 and 145 % of control. The survivor count (T/C endpoint: mean survival time, dose: 300.0 mg/kg/injection, schedule: Q01DX009 (ip), vehicle: Klucel (hydroxypropylcellulose) (HPC)) is 0 of 6.
Turning to `OCCN1CC1`, the survivor count under setting [1] is listed as 2 of 6, the survivor count under setting [2] is listed as 0 of 6 and the survivor count under setting [3] is listed as 0 of 6.
`O=Nc1ccc(O)cc1`: the survivor count under setting [4] was 0 of 6.
For the molecule `CC(/C=N/N(C)C)=N/[N+](C)(C)C`, the survivor count under setting [5] is listed as 1 of 3.
With `CCCCCCCCCCCCCC#CC(=O)O`, the survivor count (T/C endpoint: mean survival time, dose: 100.0 mg/kg/injection, schedule: Q01DX009 (ip), vehicle: saline with Tween-80) is 3 of 6.
As to `CC[C@@]1(O)C(=O)OCc2c1cc1n(c2=O)Cc2cc3c(OC)cccc3nc2-1`, the T/C was 130 % of control (T/C endpoint: mean survival time, dose: 0.5 mg/kg/injection, schedule: Q01DX009 (ip), vehicle: saline with Tween-80); 136 % of control (T/C endpoint: mean survival time, dose: 1.0 mg/kg/injection, schedule: Q01DX009 (ip), vehicle: saline); 143 % of control (T/C endpoint: mean survival time, dose: 1.5 mg/kg/injection, schedule: Q01DX009 (ip), vehicle: saline); 131 % of control (T/C endpoint: mean survival time, dose: 1.9 mg/kg/injection, schedule: Q04DX003 (ip), vehicle: water). The survivor count is 5 of 6 (T/C endpoint: mean survival time, dose: 6.25 mg/kg/injection, schedule: Q01DX009 (ip), vehicle: saline with Tween-80); 4 of 6 (T/C endpoint: mean survival time, dose: 12.5 mg/kg/injection, schedule: Q01DX009 (ip), vehicle: saline with Tween-80); 6 of 6 (T/C endpoint: mean survival time, dose: 15.0 mg/kg/injection, schedule: Q04DX003 (ip), vehicle: water); 4 of 6 (T/C endpoint: mean survival time, dose: 16.0 mg/kg/injection, schedule: Q04DX003 (ip), vehicle: other); 0 of 6 (T/C endpoint: mean survival time, dose: 25.0 mg/kg/injection, schedule: Q01DX009 (ip), vehicle: saline with Tween-80); 3 of 6 (T/C endpoint: mean survival time, dose: 30.0 mg/kg/injection, schedule: Q04DX003 (ip), vehicle: water). For the same molecule, the survivor count (T/C endpoint: mean survival time, dose: 50.0 mg/kg/injection, schedule: Q01DX009 (ip), vehicle: saline with Tween-80) was 0 of 6.
Consider `CC(=O)N(C)c1ccc(Nc2cc(C)[nH]c3ccc4ncnc4c23)cc1`, for which the T/C runs as follows: under setting [1], 125 % of control; under setting [2], 129 % of control; under setting [3], 143 % of control; (T/C endpoint: median survival time, dose: 30.0 mg/kg/injection, schedule: Q01DX005 (ip), vehicle: saline) 137 and 148 % of control; (T/C endpoint: median survival time, dose: 44.0 mg/kg/injection, schedule: Q01DX005 (ip), vehicle: saline) 132 and 144 % of control; (T/C endpoint: median survival time, dose: 100.0 mg/kg/injection, schedule: Q01DX005 (ip), vehicle: saline) 139 % of control. The survivor count runs as follows: under setting [3], 7 of 10; (T/C endpoint: mean survival time, dose: 100.0 mg/kg/injection, schedule: Q01DX009 (ip), vehicle: saline) 0 of 6; under setting [5], 0 of 10 and 0 of 6.
Take `N\C([S-])=N/N=C\C(=N/N=C(\N)[S-])C(O)C(O)C(O)CO.[Ni+2]` (stereo unspecified): where the note is “T/C endpoint: mean survival time, dose: 322.0 mg/kg/injection, schedule: Q01DX009 (ip), vehicle: saline with Tween-80”, the survivor count was 0 of 6.
`C=C(OP(=O)(OC)OC)Sc1ccccc1C`: the survivor count (T/C endpoint: median survival time, dose: 1.5 mg/kg/injection, schedule: Q01DX009 (ip), vehicle: Klucel (hydroxypropylcellulose) (HPC)) was 4 of 6; the survivor count (T/C endpoint: median survival time, dose: 3.0 mg/kg/injection, schedule: Q01DX009 (ip), vehicle: Klucel (hydroxypropylcellulose) (HPC)) is on record as 0 of 6; the survivor count (T/C endpoint: median survival time, dose: 6.0 mg/kg/injection, schedule: Q01DX009 (ip), vehicle: Klucel (hydroxypropylcellulose) (HPC)) was 0 of 6.
On to `COc1ccc([N+](=O)[O-])cc1CN(C)C(C)C`, for which the survivor count was 0 of 6 (T/C endpoint: mean survival time, dose: 100.0 mg/kg/injection, schedule: Q04DX003 (ip), vehicle: Klucel (hydroxypropylcellulose) (HPC)); 0 of 6 (T/C endpoint: mean survival time, dose: 200.0 mg/kg/injection, schedule: Q04DX003 (ip), vehicle: Klucel (hydroxypropylcellulose) (HPC)); 0 of 6 (T/C endpoint: mean survival time, dose: 400.0 mg/kg/injection, schedule: Q04DX003 (ip), vehicle: Klucel (hydroxypropylcellulose) (HPC)).
With `COC(=O)CSC#N`, the survivor count (T/C endpoint: mean survival time, dose: 40.0 mg/kg/injection, schedule: Q01DX001 (ip), vehicle: saline) is 2 of 6.
With `C[CH2][Sn]1([CH2]C)[O]C2C(CO)OC(n3cnc4c(=O)[nH]c(N)nc43)C2[O]1` (stereo unspecified), the survivor count is reported as 0 of 6 (T/C endpoint: mean survival time, dose: 25.0 mg/kg/injection, schedule: Q01DX005 (ip), vehicle: other); 0 of 6 (T/C endpoint: mean survival time, dose: 50.0 mg/kg/injection, schedule: Q01DX005 (ip), vehicle: other); 0 of 6 (T/C endpoint: mean survival time, dose: 100.0 mg/kg/injection, schedule: Q01DX005 (ip), vehicle: other); 0 of 6 (T/C endpoint: mean survival time, dose: 200.0 mg/kg/injection, schedule: Q01DX005 (ip), vehicle: other).
Consider `NC(=O)COc1ccc(Cl)cc1Cl`, for which the survivor count under setting [6] is listed as 0 of 6.
On to `Nc1cccc2ccc(S(=O)(=O)O)cc12`, for which the survivor count under setting [6] was 3 of 6.
Consider `C#CCOCCCC(=C)C`, for which the survivor count by setting is: (T/C endpoint: mean survival time, dose: 200.0 mg/kg/injection, schedule: Q01DX001 (ip), vehicle: acetone) 4 of 6; (T/C endpoint: mean survival time, dose: 400.0 mg/kg/injection, schedule: Q01DX001 (ip), vehicle: acetone) 0 of 6.
With `CCC(C)CC(N)O` (stereo unspecified), the survivor count (T/C endpoint: mean survival time, dose: 300.0 mg/kg/injection, schedule: Q01DX001 (ip), vehicle: saline) is recorded as 3 of 6.
For `NC(Cc1cccc(NP(=S)(N2CC2)N2CC2)c1)C(=O)O` (stereo unspecified), the T/C runs as follows: under setting [7], 129 % of control [5 of 6 alive]; under setting [8], 142 % of control. For the same molecule, the survivor count (T/C endpoint: mean survival time, dose: 400.0 mg/kg/injection, schedule: Q01DX009 (ip), vehicle: saline) is recorded as 6 of 6.
With `CC1C(c2ccccc2)OC(N2CCOCC2)C(C)(C)CN1C` (stereo unspecified), the survivor count (T/C endpoint: median survival time, dose: 800.0 mg/kg/injection, schedule: Q01DX009 (ip), vehicle: saline with Tween-80) is 0 of 6.
As to `O=P(O)(O)CP(=O)(O)O.[NH-]CC[NH-].[NH-]CC[NH-].[Pd+2].[Pd+2]`, the survivor count (T/C endpoint: mean survival time, dose: 200.0 mg/kg/injection, schedule: Q04DX003 (ip), vehicle: distilled water + Tween-80) was 0 of 6.
On to `[NH-]c1ccccc1C(=O)O.[NH-]c1ccccc1C(=O)O.[Ni+2]`, for which the survivor count under setting [4] was 5 of 6.
For the molecule `CCCCCC(CN(C)C)C(=O)/C=C\c1ccc(Cl)cc1Cl` (stereo unspecified), for the setting “T/C endpoint: mean survival time, dose: 50.0 mg/kg/injection, schedule: Q01DX009 (ip), vehicle: alcohol”, the survivor count is given as 5 of 6.
Take `Cc1cccc[n+]1C`: the survivor count by setting is: (T/C endpoint: mean survival time, dose: 100.0 mg/kg/injection, schedule: Q04DX003 (ip), vehicle: saline) 6 of 6; under setting [7], 3 of 6; under setting [8], 0 of 6.
